Record: PubChem BioAssay AID1224830 (NIAID, 2016)
Aim: 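Genes whose knock-down alters the TNF-alpha reporter response to LPS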 (primary screen). Cells: human THP-1 monocytic leukaemia cells, TNF dual-luciferase reporter clone, PMA-differentiated to macrophage-like cells. Reagent: siRNA pool against human genes, 50 nM. Duration: LPS for 4 h, given about 3 days after siRNA transfection. Challenge: bacterial LPS (TLR4 ligand), 10 ng/ml. Measured: 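TNF firefly reporter luminescence divided by renilla, normalised to the plate median, then turned into a robust z-score for each replicate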. Direction: TNF reporter robust z-score: higher = stronger TNF reporter response to LPS. Rule for the call: 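Each well counts as active if its z-score is over 2.8 or under -1.5; controls are left without a call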.
Shown is an unselected part of about 18,000 reagents. About 2,900 of all reagents (16%) were called active. 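Calls are made per well; low scores hint the gene aids the LPS response, high scores that it dampens it.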 Entries without a mark were called inactive. Repeated entries: four replicate wells of each siRNA pool.

no.	Target gene	TNF reporter robust z-score
1	OR6V1 (GeneID 346517)	1.16
2	OR6V1 (GeneID 346517)	-0.44
3	OR6V1 (GeneID 346517)	0.17
4	OR6V1 (GeneID 346517)	0.49
5	RALGPS1 (GeneID 9649)	0.2
6	RALGPS1 (GeneID 9649)	-0.05
7	RALGPS1 (GeneID 9649)	-0.14
8	RALGPS1 (GeneID 9649)	0.03
9	NPC1L1 (GeneID 29881)	0.92
10	NPC1L1 (GeneID 29881)	1.32
11	NPC1L1 (GeneID 29881)	2.35
12	NPC1L1 (GeneID 29881)	1.62
13	LCMT1 (GeneID 51451)	1.73
14	LCMT1 (GeneID 51451)	-0.26
15	LCMT1 (GeneID 51451)	-0.16
16	LCMT1 (GeneID 51451)	-0.61
17	FZD2 (GeneID 2535)	0.12
18	FZD2 (GeneID 2535)	0.75
19	FZD2 (GeneID 2535)	0.43
20	FZD2 (GeneID 2535)	0.17
21	OR8B2 (GeneID 26595)	1.69
22	OR8B2 (GeneID 26595)	1.15
23	OR8B2 (GeneID 26595)	0.95
24	OR8B2 (GeneID 26595)	1.39
25	H2AC11 (GeneID 8969)	1.72
26	H2AC11 (GeneID 8969)	1.4
27	H2AC11 (GeneID 8969)	0.07
28	H2AC11 (GeneID 8969)	-0.82
29	KIAA0319 (GeneID 9856)	-0.28
30	KIAA0319 (GeneID 9856)	0.16
31	KIAA0319 (GeneID 9856)	-0.08
32	KIAA0319 (GeneID 9856)	0.77
33	NET1 (GeneID 10276)	-0.64
34	NET1 (GeneID 10276)	-0.59
35	NET1 (GeneID 10276)	-0.39
36	NET1 (GeneID 10276)	0.13
37	FRMD4A (GeneID 55691)	1.23
38	FRMD4A (GeneID 55691)	0.82
39	FRMD4A (GeneID 55691)	1.08
40	FRMD4A (GeneID 55691)	1.31
41	KHNYN (GeneID 23351)	0.19
42	KHNYN (GeneID 23351)	-0.43
43	KHNYN (GeneID 23351)	-0.85
44	KHNYN (GeneID 23351)	-0.79
45	GLRA3 (GeneID 8001)	-0.35
46	GLRA3 (GeneID 8001)	-0.44
47	GLRA3 (GeneID 8001)	0.82
48	GLRA3 (GeneID 8001)	0.83
49	CUL2 (GeneID 8453)	-0.2
50	CUL2 (GeneID 8453)	-0.12
51	CUL2 (GeneID 8453)	-0.41
52	CUL2 (GeneID 8453)	0.22
53	NME8 (GeneID 51314)	0.02
54	NME8 (GeneID 51314)	0.43
55	NME8 (GeneID 51314)	-0.99
56	NME8 (GeneID 51314)	0.59
57	NPBWR2 (GeneID 2832)	-1.11
58	NPBWR2 (GeneID 2832)	-0.24
59	NPBWR2 (GeneID 2832)	-0.75
60	NPBWR2 (GeneID 2832)	-0.82
61	FGF12 (GeneID 2257)	-0.52
62	FGF12 (GeneID 2257)	-0.75
63	FGF12 (GeneID 2257)	-1.43
64	FGF12 (GeneID 2257)	-0.68
65	GPHRB (GeneID 51463)	-0.82
66	GPHRB (GeneID 51463)	-0.81
67	GPHRB (GeneID 51463)	-0.38
68	GPHRB (GeneID 51463)	0.53
69	CHST14 (GeneID 113189)	-0.32
70	CHST14 (GeneID 113189)	-0.22
71	CHST14 (GeneID 113189)	-0.49
72	CHST14 (GeneID 113189)	-0.15
73	OR2T10 (GeneID 127069)	-0.94
74	OR2T10 (GeneID 127069)	0.05
75	OR2T10 (GeneID 127069)	-0.19
76	OR2T10 (GeneID 127069)	0.01
77	ACTL7A (GeneID 10881)	-0.99
78	ACTL7A (GeneID 10881)	-1.09
79	ACTL7A (GeneID 10881)	-1.04
80	ACTL7A (GeneID 10881)	-0.87
81	CST2 (GeneID 1470)	-0.12
82	CST2 (GeneID 1470)	-0.24
83	CST2 (GeneID 1470)	-0.79
84	CST2 (GeneID 1470)	-0.81
85	CACNA1S (GeneID 779)	0
86	CACNA1S (GeneID 779)	-0.44
87	CACNA1S (GeneID 779)	0.09
88	CACNA1S (GeneID 779)	-1

Laid out differently: 13 of the entries above.
Target gene,TNF reporter robust z-score
FGF12 (GeneID 2257),-0.52
FGF12 (GeneID 2257),-0.75
FGF12 (GeneID 2257),-1.43
FGF12 (GeneID 2257),-0.68
GPHRB (GeneID 51463),-0.82
GPHRB (GeneID 51463),-0.81
GPHRB (GeneID 51463),-0.38
GPHRB (GeneID 51463),0.53
CHST14 (GeneID 113189),-0.32
CHST14 (GeneID 113189),-0.22
CHST14 (GeneID 113189),-0.49
CHST14 (GeneID 113189),-0.15
OR2T10 (GeneID 127069),-0.94

The results go on:
no.	Target gene	TNF reporter robust z-score
89	TMC1 (GeneID 117531)	-0.14
90	TMC1 (GeneID 117531)	0.69
91	TMC1 (GeneID 117531)	2.56
92	TMC1 (GeneID 117531)	0.36
93	RNF183 (GeneID 138065)	0.2
94	RNF183 (GeneID 138065)	1.69
95	RNF183 (GeneID 138065)	1.22
96	RNF183 (GeneID 138065)	1.23
97	CEBPA (GeneID 1050)	-0.76
98	CEBPA (GeneID 1050)	-0.28
99	CEBPA (GeneID 1050)	-0.38
100	CEBPA (GeneID 1050)	-0.55
101	ACO2 (GeneID 50)	-1.76 (active)
102	ACO2 (GeneID 50)	-1.9 (active)
103	ACO2 (GeneID 50)	-1.65 (active)
104	SERPING1 (GeneID 710)	-1.2
105	SERPING1 (GeneID 710)	-1.1
106	SERPING1 (GeneID 710)	-0.42
107	SERPING1 (GeneID 710)	-0.49
108	RFTN2 (GeneID 130132)	1.19
109	RFTN2 (GeneID 130132)	1.25
110	RFTN2 (GeneID 130132)	-0.75
111	RFTN2 (GeneID 130132)	0.53
112	LRRTM4 (GeneID 80059)	-0.05
113	LRRTM4 (GeneID 80059)	0.21
114	LRRTM4 (GeneID 80059)	-1.16
115	LRRTM4 (GeneID 80059)	-1.01
116	TCP10L (GeneID 140290)	-0.76
117	TCP10L (GeneID 140290)	-0.06
118	TCP10L (GeneID 140290)	0.2
119	TCP10L (GeneID 140290)	-0.44
120	MBD3 (GeneID 53615)	-1.62 (active)
121	MBD3 (GeneID 53615)	-1.54 (active)
122	MBD3 (GeneID 53615)	-1.66 (active)
123	MBD3 (GeneID 53615)	-1.71 (active)
124	AVPR1A (GeneID 552)	-1.07
125	AVPR1A (GeneID 552)	-1.53 (active)
126	AVPR1A (GeneID 552)	-1.28
127	AVPR1A (GeneID 552)	-0.96
128	ITLN1 (GeneID 55600)	-1
129	ITLN1 (GeneID 55600)	-0.68
130	ITLN1 (GeneID 55600)	-1.29
131	ITLN1 (GeneID 55600)	1
132	NSUN6 (GeneID 221078)	-0.82
133	NSUN6 (GeneID 221078)	-0.12
134	NSUN6 (GeneID 221078)	-1.26
135	NSUN6 (GeneID 221078)	-1.08
136	OR2T34 (GeneID 127068)	-0.67
137	OR2T34 (GeneID 127068)	0.14
138	OR2T34 (GeneID 127068)	-0.16
139	OR2T34 (GeneID 127068)	0
140	NFAT5 (GeneID 10725)	-0.92
141	NFAT5 (GeneID 10725)	0.77
142	NFAT5 (GeneID 10725)	-0.09
143	NFAT5 (GeneID 10725)	0.39
